# Screening data

The results are deposited in PubChem (AID1053133; Broad Institute, 2014).

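Vaccinia-infected cells with a two-color viral stage reporter; Venus fluorescence read on a plate reader; the cell line is not named here; timing not stated here.
The test concentration is not given here.
Percent change in Venus reporter signal; lower (more negative) values mean stronger inhibition of that viral stage.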

Values are in %.
How 0% and 100% were set is not given here.
Common to all entries: measured here: Venus reporter, other viral stage.
Part of the compounds only, not a random draw; the main read-out is not listed here.

SMILES	activity change (Venus) (%)
CC(C)CC#Cc1ccc2c(c1)O[C@@H](CN(C)C(=O)Cc1cccnc1)[C@@H](C)CN([C@@H](C)CO)S2(=O)=O	-49.28
O=C(c1ccc(F)cc1)N1CC(=O)N2[C@H](C1)[C@H](c1ccc(C#CCC3CCCC3)cc1)[C@@H]2CO	-44.19
COc1cccc(S(=O)(=O)N(C)C[C@H]2Oc3cc(C#CCC(C)C)ccc3S(=O)(=O)N([C@@H](C)CO)C[C@H]2C)c1	-34.08
O=C(Nc1ccccc1)N1CCCCN2[C@@H](CO)[C@@H](c3ccc(Br)cc3)[C@@H]2C1	-33.69
C[C@@H]1CCCCO[C@H](CN(C)C(=O)Cc2ccccc2)[C@H](C)CN([C@H](C)CO)C(=O)c2cc(NC(=O)c3ccccc3)ccc2O1	-34.53
COc1cccc(-c2ccc3c(c2)[C@H]2[C@H](CCN2S(=O)(=O)c2ccccc2OC)[C@@H](CO)N3C)c1	-50.71
C[C@H]1CN([C@@H](C)CO)C(=O)c2cccc(NC(=O)C3CCCCC3)c2O[C@@H]1CN(C)Cc1ccc(C(F)(F)F)cc1	-41.67
Cc1ccc(S(=O)(=O)N(C)C[C@H]2Oc3ccc(NC(=O)NC4CCCCC4)cc3C(=O)N([C@@H](C)CO)C[C@H]2C)cc1	-26.19
C[C@@H]1CN([C@@H](C)CO)C(=O)c2cc(NC(=O)Nc3ccc(C(F)(F)F)cc3)ccc2O[C@@H](C)CCCCO[C@H]1CN(C)Cc1ccc2c(c1)OCO2	-29.05
C[C@H](CO)N1C[C@H](C)[C@@H](CN(C)Cc2ccc(C(F)(F)F)cc2)Oc2ccc(N(C)C)cc2CC1=O	-43.57
COc1ccccc1-c1cnc2c(c1)C(=O)N([C@H](C)CO)C[C@@H](C)[C@H](CN(C)Cc1ccc(F)cc1)O2	-52.44
C[C@@H]1CN([C@@H](C)CO)C(=O)c2cc(NC(=O)Nc3ccc(F)cc3)ccc2O[C@@H](C)CCCCO[C@@H]1CN(C)Cc1ccccc1	-43.17
Cc1ccc(S(=O)(=O)Nc2ccc3c(c2)C(=O)N([C@H](C)CO)C[C@@H](C)[C@@H](CN(C)Cc2ccc(Cl)c(Cl)c2)OCCCC[C@H](C)O3)cc1	-32.77
O=S(=O)(c1ccccc1F)N1C[C@@H]2N[C@H](C1)C2c1ccc(-c2cccnc2)cc1 (some centres undefined)	-65.36
C/C=C/c1ccc2c(c1)O[C@@H](CN(C)C(=O)c1cccc(F)c1)[C@@H](C)CN([C@@H](C)CO)S2(=O)=O	-33.15
C[C@H](CO)N1C[C@H](C)[C@H](CN(C)C(=O)C2CCCCC2)OCCCC[C@H](C)Oc2ccc(NC(=O)Nc3ccccc3)cc2C1=O	-42.71
O=C(c1cccnc1)N1CC(=O)N2[C@H](CO)[C@@H](c3ccc(C#CCC4CCCC4)cc3)[C@@H]2C1	-71.59
OC[C@@H]1Nc2ccc(C#Cc3ccc(F)cc3)cc2[C@H]2[C@@H]1CCN2Cc1ccc2c(c1)OCO2	-23.99
Cc1ccc(-c2ccc3c(c2)O[C@@H](CN(C)C(=O)Nc2ccc(C(F)(F)F)cc2)[C@@H](C)CN([C@@H](C)CO)S3(=O)=O)cc1	-62.55
CC(C)(C)[S@@](=O)N1Cc2cc(C(=O)NCCN3CCCCC3)nc(-c3cccc(-c4cccc(C#N)c4)c3)c2[C@H]1CCO	-24.01
COc1ccc(C#Cc2ccc([C@@H]3[C@@H](CO)N4CCCCN(C(=O)Nc5ccccc5F)C[C@H]34)cc2)cc1	-19.06
C[C@H](CO)N1C[C@H](C)[C@H](CN(C)Cc2ccc(C(F)(F)F)cc2)Oc2ccc(NC(=O)Cc3ccccc3)cc2C1=O	-29.49
N#Cc1cccc(-c2ccc([C@@H]3[C@@H](CO)N4CCCCN(C(=O)Nc5ccc(F)cc5)C[C@H]34)cc2)c1	-43.45
C[C@H](CO)N1C[C@H](C)[C@H](CN(C)C(=O)Nc2ccc3c(c2)OCO3)Oc2ncc(C#Cc3ccc(F)cc3)cc2C1=O	-69.19
CCCNC(=O)C[C@@H]1CC[C@H]2[C@H](COc3ccc(NC(=O)c4ccc(C(F)(F)F)cc4)cc3C(=O)N2C)O1	-29.34
CC(C)(C)[S@@](=O)N1Cc2cc(C(=O)NCc3ccccc3F)nc(-c3cccc(-c4ccncc4)c3)c2[C@H]1CCO	-60.51
C[C@H](CO)N1C[C@H](C)[C@@H](CN(C)Cc2ccc3c(c2)OCO3)OCCCC[C@H](C)Oc2ccc(NS(=O)(=O)c3ccc(Cl)cc3)cc2C1=O	-46.78
Cc1noc(C)c1S(=O)(=O)Nc1ccc2c(c1)C(=O)N([C@H](C)CO)C[C@@H](C)[C@@H](CN(C)Cc1ccc3c(c1)OCO3)OCCCC[C@H](C)O2	-63.61
O=C(Nc1ccc(C(F)(F)F)cc1)N1C[C@@H]2N[C@H](C1)C2c1ccc(-c2ccccc2)cc1 (some centres undefined)	-85.14
O=C(C[C@H]1CC[C@@H]2[C@H](COC[C@@H](O)CN2Cc2ccc(Oc3ccccc3)cc2)O1)Nc1nccs1	-41.66
Cc1ccc(S(=O)(=O)Nc2ccc3c(c2)C(=O)N([C@H](C)CO)C[C@H](C)[C@H](CN(C)Cc2ccc(C(F)(F)F)cc2)OCCCC[C@H](C)O3)cc1	-81.04
O=C(C[C@H]1CC[C@H]2[C@@H](COC[C@H](O)CN2C(=O)Nc2ccc(C(F)(F)F)cc2)O1)NCC1CCCCC1	-61.36
Cc1noc(C)c1S(=O)(=O)Nc1ccc2c(c1)C(=O)N([C@H](C)CO)C[C@H](C)[C@@H](CN(C)Cc1ccc(Cl)c(Cl)c1)OCCCC[C@@H](C)O2	-28.53
C[C@@H]1CN([C@@H](C)CO)C(=O)c2cccc(NC(=O)C3CCCCC3)c2O[C@@H]1CN(C)Cc1ccc(C(F)(F)F)cc1	-31.11
COc1cccc(NC(=O)N(C)C[C@@H]2Oc3cc(C#Cc4ccncc4)ccc3S(=O)(=O)N([C@H](C)CO)C[C@@H]2C)c1	-30.69
O=C(Nc1ccccc1F)N1CCCCN2[C@H](CO)[C@H](c3ccc(C#Cc4ccccc4)cc3)[C@H]2C1	-56.67
Cc1noc(C)c1S(=O)(=O)N(C)C[C@H]1OCCCC[C@H](C)Oc2ccc(NC(=O)NC3CCCCC3)cc2C(=O)N([C@@H](C)CO)C[C@@H]1C	-38.96
COc1ccc(NC(=O)Nc2ccc3c(c2)CC(=O)N([C@@H](C)CO)C[C@H](C)[C@H](CN(C)S(=O)(=O)c2ccc(Cl)cc2)O3)cc1	-31.73
C[C@@H]1CN([C@H](C)CO)C(=O)c2cc(NC(=O)CCC(F)(F)F)ccc2O[C@H]1CN(C)Cc1ccc(-c2ccccc2)cc1	-25.61
C[C@@H]1CN([C@@H](C)CO)C(=O)c2c(c3ccccc3n2C)-c2ccccc2CO[C@H]1CN(C)Cc1ccc2c(c1)OCO2	-73.76
CCNC(=O)c1cc2c(c(-c3cccc(-c4cc5ccccc5o4)c3)n1)[C@@H](CCO)N(C(=O)NC(C)C)C2	-51.38
Cc1ccc(S(=O)(=O)N(C)C[C@@H]2OCCCC[C@H](C)Oc3ccc(NS(=O)(=O)c4ccccc4)cc3C(=O)N([C@@H](C)CO)C[C@@H]2C)cc1	-39.82
COc1ccc(S(=O)(=O)Nc2ccc3c(c2)C(=O)N([C@H](C)CO)C[C@H](C)[C@@H](CN(C)Cc2ccc(C(F)(F)F)cc2)OCCCC[C@H](C)O3)cc1	-70.16
C[C@H]1CN([C@@H](C)CO)C(=O)c2cc(NC(=O)NC3CCCCC3)ccc2O[C@@H]1CN(C)Cc1ccc(Cl)c(Cl)c1	-28.52
C[C@H](CO)N1C[C@H](C)[C@@H](CN(C)C(=O)c2ccccn2)Oc2cc(C#CCC3CCCC3)ccc2S1(=O)=O	-34
C[C@H]1CN([C@@H](C)CO)C(=O)c2cccc(NS(=O)(=O)c3ccc(Cl)cc3)c2O[C@H]1CN(C)Cc1ccc(-c2ccccc2)cc1	-41.63
CN1c2ccc(-c3ccc(F)cc3)cc2[C@@H]2[C@@H](CCN2C(=O)c2cccc(F)c2)[C@@H]1CO	-38.64
O=C(C1CCCCC1)N1C[C@@H]2[C@H](c3ccccc31)[C@H](CO)N2Cc1ccccc1Cl	-31.75
O=C(C[C@@H]1C[C@H]2c3cc(NS(=O)(=O)c4ccc(F)cc4)ccc3O[C@H]2[C@H](CO)O1)NCc1ccc(Cl)cc1	-53.83
C[C@H]1CN([C@@H](C)CO)S(=O)(=O)c2ccc(C#Cc3ccc(F)cc3)cc2O[C@H]1CN(C)C(=O)CN(C)C	-69.54
C[C@H](CO)N1C[C@H](C)[C@H](CN(C)C(=O)Nc2ccc3c(c2)OCO3)Oc2ncc(C#Cc3ccc(C(F)(F)F)cc3)cc2C1=O	-41.55
Cc1ccccc1-c1ccc(C2[C@@H]3CN(C(=O)C4CCCC4)C[C@H]2N3)cc1 (some centres undefined)	-73.56
C[C@H](CO)N1C[C@H](C)[C@H](CN(C)S(=O)(=O)c2ccc(F)cc2)Oc2ccc(NC(=O)Nc3ccc(C(F)(F)F)cc3)cc2CC1=O	-50.07
CCCN1[C@@H]2c3ccc(-c4cccc(F)c4)c(=O)n3C[C@@H]2[C@@H](CO)[C@@H]1C(=O)N[C@H](C)c1ccccc1	-36.61
Cc1ccc(S(=O)(=O)N(C)C[C@H]2OCCCC[C@H](C)Oc3ccc(NS(=O)(=O)c4ccc(F)cc4)cc3C(=O)N([C@H](C)CO)C[C@H]2C)cc1	-25.36
COc1ccc(NC(=O)N2CC(=O)N3[C@H](C2)[C@@H](c2ccc(-c4ccccc4)cc2)[C@@H]3CO)cc1	-24.5
O=C(c1ccccn1)N1CC(=O)N2[C@H](CO)[C@H](c3ccc(C#CC4CCCC4)cc3)[C@H]2C1	-68.17

Once more, the final 6:

With Cc1ccccc1-c1ccc(C2[C@@H]3CN(C(=O)C4CCCC4)C[C@H]2N3)cc1 (some centres undefined) the assay gave activity change (Venus) -73.56%.
With C[C@H](CO)N1C[C@H](C)[C@H](CN(C)S(=O)(=O)c2ccc(F)cc2)Oc2ccc(NC(=O)Nc3ccc(C(F)(F)F)cc3)cc2CC1=O the assay gave activity change (Venus) -50.07%.
With CCCN1[C@@H]2c3ccc(-c4cccc(F)c4)c(=O)n3C[C@@H]2[C@@H](CO)[C@@H]1C(=O)N[C@H](C)c1ccccc1 the assay gave activity change (Venus) -36.61%.
With Cc1ccc(S(=O)(=O)N(C)C[C@H]2OCCCC[C@H](C)Oc3ccc(NS(=O)(=O)c4ccc(F)cc4)cc3C(=O)N([C@H](C)CO)C[C@H]2C)cc1 the assay gave activity change (Venus) -25.36%.
With COc1ccc(NC(=O)N2CC(=O)N3[C@H](C2)[C@@H](c2ccc(-c4ccccc4)cc2)[C@@H]3CO)cc1 the assay gave activity change (Venus) -24.5%.
With O=C(c1ccccn1)N1CC(=O)N2[C@H](CO)[C@H](c3ccc(C#CC4CCCC4)cc3)[C@H]2C1 the assay gave activity change (Venus) -68.17%.